Measurements from the supplement of paper PMC12823440, “Inhibitors supercharge kinase turnover through native proteolytic circuits” (Nature, 2025).
Counter-ions that a name gives are not always drawn. The list shows a part of the results. Hit calls seldom repeat between salt and free forms of one compound.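 Kinases were expressed as nanoluciferase fusions in K562 cells and luminescence was read every 4 h between 2 and 18 h as percent of control, DMSO set to 100% and a positive control to 0%. A time point counts as decreased when the signal drops significantly (2 sigma). The hit call is the authors' own, does not follow from the count of time points alone, and its rule is not shown.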

Amino acid sequences for entries named in this document (tags omitted). A change or cut given only in a name is not applied to a line headed by its entry.
UniProt P48729: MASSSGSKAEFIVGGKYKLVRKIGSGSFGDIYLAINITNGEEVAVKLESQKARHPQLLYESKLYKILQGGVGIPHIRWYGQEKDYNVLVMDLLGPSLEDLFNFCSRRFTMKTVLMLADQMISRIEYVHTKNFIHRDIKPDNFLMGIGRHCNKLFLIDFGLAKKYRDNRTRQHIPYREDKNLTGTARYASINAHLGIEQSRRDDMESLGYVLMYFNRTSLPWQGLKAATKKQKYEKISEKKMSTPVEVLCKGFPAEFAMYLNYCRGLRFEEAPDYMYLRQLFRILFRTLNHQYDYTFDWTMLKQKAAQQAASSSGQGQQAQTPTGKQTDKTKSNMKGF
UniProt Q9Y463, whole entry, looked up: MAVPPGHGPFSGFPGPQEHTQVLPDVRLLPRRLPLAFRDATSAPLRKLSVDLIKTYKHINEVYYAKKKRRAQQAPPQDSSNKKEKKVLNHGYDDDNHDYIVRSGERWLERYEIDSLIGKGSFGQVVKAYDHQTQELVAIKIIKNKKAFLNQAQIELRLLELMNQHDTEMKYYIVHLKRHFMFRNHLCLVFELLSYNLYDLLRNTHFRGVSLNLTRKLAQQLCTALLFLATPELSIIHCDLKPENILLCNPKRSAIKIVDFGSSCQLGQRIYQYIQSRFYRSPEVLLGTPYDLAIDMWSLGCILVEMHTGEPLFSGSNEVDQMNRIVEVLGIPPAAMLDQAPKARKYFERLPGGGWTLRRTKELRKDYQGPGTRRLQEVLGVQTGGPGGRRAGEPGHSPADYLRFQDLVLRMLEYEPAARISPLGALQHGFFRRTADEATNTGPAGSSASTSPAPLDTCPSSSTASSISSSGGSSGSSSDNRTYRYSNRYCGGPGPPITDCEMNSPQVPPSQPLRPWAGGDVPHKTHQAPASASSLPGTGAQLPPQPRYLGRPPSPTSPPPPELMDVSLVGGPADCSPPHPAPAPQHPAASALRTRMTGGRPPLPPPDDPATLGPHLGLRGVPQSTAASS
UniProt Q92630: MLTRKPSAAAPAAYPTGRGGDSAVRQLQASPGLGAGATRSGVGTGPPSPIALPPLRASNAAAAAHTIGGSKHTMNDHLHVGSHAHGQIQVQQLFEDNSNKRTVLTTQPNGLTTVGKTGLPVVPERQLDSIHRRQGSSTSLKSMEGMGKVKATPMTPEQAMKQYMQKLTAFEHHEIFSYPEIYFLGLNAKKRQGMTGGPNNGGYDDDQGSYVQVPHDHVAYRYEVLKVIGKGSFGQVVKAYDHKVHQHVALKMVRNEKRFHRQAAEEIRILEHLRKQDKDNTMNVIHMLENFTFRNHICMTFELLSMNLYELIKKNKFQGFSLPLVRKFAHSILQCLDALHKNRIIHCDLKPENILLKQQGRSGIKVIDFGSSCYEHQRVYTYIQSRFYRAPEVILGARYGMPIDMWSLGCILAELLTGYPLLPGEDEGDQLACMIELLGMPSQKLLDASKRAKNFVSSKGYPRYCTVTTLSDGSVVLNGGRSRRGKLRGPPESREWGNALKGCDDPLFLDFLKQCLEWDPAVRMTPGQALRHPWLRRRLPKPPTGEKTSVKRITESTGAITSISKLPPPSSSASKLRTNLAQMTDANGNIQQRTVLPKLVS
UniProt P29317, whole entry: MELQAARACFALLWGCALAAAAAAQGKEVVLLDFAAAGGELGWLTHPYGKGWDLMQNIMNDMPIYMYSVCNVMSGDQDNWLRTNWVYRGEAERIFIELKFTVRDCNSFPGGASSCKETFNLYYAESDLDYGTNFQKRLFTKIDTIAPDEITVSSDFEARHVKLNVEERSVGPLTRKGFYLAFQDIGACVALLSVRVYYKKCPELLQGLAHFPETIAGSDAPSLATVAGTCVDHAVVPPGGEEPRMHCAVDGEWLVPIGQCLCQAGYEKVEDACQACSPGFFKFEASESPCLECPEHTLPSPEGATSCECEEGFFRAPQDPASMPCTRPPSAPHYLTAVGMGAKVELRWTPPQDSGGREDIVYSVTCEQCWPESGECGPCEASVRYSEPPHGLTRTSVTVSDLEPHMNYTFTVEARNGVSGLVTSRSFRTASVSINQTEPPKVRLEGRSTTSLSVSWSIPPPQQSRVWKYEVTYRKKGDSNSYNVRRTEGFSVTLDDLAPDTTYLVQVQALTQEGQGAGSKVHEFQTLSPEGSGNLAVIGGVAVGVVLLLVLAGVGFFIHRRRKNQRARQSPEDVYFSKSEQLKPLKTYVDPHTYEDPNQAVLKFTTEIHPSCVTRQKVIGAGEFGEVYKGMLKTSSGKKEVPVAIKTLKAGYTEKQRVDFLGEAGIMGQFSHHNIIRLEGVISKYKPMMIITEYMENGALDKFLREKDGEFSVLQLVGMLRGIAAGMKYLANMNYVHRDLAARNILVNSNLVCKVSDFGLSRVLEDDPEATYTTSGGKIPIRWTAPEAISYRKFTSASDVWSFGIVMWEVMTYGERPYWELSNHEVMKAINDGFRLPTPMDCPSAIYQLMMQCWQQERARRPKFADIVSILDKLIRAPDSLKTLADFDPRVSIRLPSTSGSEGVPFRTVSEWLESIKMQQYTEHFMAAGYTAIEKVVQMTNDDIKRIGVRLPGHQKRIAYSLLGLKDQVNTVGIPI
UniProt Q15303, whole entry R711C: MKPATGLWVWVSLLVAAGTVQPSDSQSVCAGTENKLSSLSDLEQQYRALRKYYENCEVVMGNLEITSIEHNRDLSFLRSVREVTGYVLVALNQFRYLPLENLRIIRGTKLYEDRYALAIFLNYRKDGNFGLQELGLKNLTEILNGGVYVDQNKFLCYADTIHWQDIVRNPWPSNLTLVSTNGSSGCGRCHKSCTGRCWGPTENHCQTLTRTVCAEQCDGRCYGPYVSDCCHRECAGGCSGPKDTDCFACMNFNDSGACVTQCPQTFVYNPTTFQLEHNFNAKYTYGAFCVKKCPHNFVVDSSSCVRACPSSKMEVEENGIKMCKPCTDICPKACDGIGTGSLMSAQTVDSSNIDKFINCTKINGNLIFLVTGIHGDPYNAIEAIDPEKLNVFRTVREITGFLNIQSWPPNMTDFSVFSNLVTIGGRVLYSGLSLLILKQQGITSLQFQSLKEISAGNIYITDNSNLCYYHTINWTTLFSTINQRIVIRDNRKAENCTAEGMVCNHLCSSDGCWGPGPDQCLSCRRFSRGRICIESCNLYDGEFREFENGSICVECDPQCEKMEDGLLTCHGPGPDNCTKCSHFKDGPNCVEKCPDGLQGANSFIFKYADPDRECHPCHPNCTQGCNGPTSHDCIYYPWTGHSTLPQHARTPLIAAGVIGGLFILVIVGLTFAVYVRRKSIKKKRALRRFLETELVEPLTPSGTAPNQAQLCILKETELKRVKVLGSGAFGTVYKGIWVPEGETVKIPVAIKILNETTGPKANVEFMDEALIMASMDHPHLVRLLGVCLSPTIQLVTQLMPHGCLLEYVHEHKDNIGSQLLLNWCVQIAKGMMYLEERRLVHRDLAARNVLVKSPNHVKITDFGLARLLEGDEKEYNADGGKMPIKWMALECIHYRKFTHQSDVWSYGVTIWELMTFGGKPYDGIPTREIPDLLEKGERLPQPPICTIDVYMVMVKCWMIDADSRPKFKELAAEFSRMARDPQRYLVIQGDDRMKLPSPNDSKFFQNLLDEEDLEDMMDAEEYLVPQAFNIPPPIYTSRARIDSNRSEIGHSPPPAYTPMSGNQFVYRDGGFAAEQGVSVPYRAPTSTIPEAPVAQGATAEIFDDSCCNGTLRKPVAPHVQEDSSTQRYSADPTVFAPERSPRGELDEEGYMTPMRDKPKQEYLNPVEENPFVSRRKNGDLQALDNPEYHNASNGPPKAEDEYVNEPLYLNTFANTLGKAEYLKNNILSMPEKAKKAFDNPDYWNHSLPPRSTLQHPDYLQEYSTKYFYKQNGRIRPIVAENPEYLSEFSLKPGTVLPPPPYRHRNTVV
UniProt O75460: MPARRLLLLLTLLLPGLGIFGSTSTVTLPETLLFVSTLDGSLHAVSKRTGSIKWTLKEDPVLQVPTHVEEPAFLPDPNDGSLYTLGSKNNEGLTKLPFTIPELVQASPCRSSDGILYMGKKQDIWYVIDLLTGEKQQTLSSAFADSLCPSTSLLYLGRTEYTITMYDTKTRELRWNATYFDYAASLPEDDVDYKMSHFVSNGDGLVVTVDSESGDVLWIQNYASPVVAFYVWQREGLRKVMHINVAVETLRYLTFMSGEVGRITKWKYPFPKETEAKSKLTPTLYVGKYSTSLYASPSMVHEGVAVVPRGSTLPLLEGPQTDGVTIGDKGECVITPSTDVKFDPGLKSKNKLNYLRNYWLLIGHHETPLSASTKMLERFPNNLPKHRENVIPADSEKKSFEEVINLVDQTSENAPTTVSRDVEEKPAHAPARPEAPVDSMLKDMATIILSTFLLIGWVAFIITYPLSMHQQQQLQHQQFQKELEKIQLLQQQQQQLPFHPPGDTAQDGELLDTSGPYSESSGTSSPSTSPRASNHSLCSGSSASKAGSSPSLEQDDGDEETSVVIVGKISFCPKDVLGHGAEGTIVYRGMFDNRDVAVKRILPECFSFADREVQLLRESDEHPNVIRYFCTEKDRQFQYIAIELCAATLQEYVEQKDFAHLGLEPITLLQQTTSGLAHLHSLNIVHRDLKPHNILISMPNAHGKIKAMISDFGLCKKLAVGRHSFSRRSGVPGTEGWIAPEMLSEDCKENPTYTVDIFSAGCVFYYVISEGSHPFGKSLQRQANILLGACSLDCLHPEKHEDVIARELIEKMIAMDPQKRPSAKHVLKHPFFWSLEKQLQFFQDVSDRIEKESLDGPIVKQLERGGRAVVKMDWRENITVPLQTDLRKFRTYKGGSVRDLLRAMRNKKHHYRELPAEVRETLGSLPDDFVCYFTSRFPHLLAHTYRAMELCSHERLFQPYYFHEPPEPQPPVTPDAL
UniProt P21802, whole entry, looked up: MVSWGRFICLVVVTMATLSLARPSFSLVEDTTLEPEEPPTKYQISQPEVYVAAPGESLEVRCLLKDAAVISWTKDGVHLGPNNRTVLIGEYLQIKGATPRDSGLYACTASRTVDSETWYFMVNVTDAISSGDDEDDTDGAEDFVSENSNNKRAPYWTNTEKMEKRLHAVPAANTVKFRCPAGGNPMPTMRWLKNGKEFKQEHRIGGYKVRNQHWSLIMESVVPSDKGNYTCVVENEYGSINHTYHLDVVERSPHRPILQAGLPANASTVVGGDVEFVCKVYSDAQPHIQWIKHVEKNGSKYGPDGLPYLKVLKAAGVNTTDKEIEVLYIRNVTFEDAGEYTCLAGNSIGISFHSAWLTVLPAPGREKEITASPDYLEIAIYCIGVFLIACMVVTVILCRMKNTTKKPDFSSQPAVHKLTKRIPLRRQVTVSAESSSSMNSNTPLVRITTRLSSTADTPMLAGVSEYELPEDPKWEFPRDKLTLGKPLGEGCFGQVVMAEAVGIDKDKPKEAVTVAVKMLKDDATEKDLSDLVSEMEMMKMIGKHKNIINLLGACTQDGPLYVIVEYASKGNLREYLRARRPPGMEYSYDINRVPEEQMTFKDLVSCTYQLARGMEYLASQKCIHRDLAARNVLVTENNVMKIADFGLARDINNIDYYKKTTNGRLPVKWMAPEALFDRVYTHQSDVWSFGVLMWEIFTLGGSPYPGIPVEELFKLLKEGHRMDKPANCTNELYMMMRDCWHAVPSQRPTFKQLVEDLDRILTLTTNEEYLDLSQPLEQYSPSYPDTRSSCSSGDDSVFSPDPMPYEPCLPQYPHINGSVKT
UniProt P22607, whole entry, looked up: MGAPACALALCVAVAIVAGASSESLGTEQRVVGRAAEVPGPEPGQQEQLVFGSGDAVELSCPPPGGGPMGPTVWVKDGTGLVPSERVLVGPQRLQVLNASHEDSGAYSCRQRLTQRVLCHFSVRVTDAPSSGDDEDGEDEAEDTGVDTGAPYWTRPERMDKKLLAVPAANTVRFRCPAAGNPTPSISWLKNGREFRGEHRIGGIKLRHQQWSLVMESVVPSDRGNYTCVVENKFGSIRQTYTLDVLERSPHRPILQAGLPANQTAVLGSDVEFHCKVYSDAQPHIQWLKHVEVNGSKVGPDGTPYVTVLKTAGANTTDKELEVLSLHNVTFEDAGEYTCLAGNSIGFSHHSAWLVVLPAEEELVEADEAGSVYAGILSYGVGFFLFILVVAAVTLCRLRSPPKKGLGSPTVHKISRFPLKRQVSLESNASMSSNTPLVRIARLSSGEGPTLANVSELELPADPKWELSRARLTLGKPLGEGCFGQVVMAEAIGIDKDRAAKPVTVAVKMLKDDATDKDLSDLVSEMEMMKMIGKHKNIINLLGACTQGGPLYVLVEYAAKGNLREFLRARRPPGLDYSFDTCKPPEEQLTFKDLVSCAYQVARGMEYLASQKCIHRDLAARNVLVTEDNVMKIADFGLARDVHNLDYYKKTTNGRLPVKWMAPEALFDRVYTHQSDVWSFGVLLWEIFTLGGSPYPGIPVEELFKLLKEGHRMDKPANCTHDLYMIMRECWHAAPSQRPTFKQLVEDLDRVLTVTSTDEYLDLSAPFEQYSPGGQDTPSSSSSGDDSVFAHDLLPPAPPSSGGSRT

Columns and labels:
Assay in all cases: number of time points (of 5) at which kinase-Nluc abundance scored as decreased, DMSO-normalised (count); higher = more persistent destabilization
Settings in all cases: K562; 2-18 h
CSNK1A1 = CSNK1A1 (UniProt P48729)
CSNK1D = CSNK1D (UniProt P48730)
DDR1 = DDR1 (UniProt Q08345)
DYRK1B = DYRK1B (UniProt Q9Y463)
DYRK2 = DYRK2 (UniProt Q92630)
EGFR = EGFR (UniProt P00533)
EGFR_G719S = EGFR_G719S (UniProt P00533)
EGFR_G719S_T790M = EGFR_G719S_T790M (UniProt P00533)
EGFR_L718V = EGFR_L718V (UniProt P00533)
EGFR_L858R = EGFR_L858R (UniProt P00533)
EGFR_L861Q = EGFR_L861Q (UniProt P00533)
EGFR_T790M = EGFR_T790M (UniProt P00533)
EPHA2 = EPHA2 (UniProt P29317)
ERBB3 = ERBB3 (UniProt P21860)
[1] = molecular target: ERBB4_R711C (clone: ERBB4_mut) (UniProt Q15303)
ERN1 = ERN1 (UniProt O75460)
FGFR1 = FGFR1 (UniProt P11362)
FGFR2 = FGFR2 (UniProt P21802)
FGFR3 = FGFR3 (UniProt P22607)
FGR = FGR (UniProt P09769)

Measured: number of time points

CC(=O)O/N=C1/C(c2c(O)[nH]c3cc(Br)ccc23)=Nc2ccccc21 [BIO-acetoxime] (10 µM)
0: all assays above

COc1ccc2nc3ccc(OC)cc3c(SCCCN)c2c1 (10 µM)
3: EGFR_L858R | EGFR_L861Q | ERN1
2: DDR1 | DYRK1B | EGFR_L718V | FGFR2 | FGR
0: all other assays above

Cn1cc(C2=C(c3ccc(Cl)cc3Cl)C(=O)NC2=O)c2ccccc21 (10 µM)
0: all assays above

CC1(C)CN(C(=O)c2ccc(-c3cccc4nc(NC(=O)C5CC5)nn34)cc2)C1 [Solcitinib] (10 µM)
0: all assays above

CN1CCN(c2ccc(-n3cc(-c4ccncc4OCC4CCNCC4)cn3)cc2)CC1 [MELK-8a (hydrochloride)] (10 µM)
1: DYRK1B | [1]
3: CSNK1A1 | DDR1 | EGFR_G719S_T790M | EGFR_L861Q | ERBB3
4: DYRK2
2: EGFR | EGFR_G719S | EGFR_L718V | EGFR_L858R | EPHA2
0: all other assays above

Cc1cnc(Cl)nc1-c1ccc(N(Cc2ccc(CNC(=O)C(F)F)cc2)C(=O)c2ccc(O)cc2O)cc1 (10 µM)
0: all assays above

CN(C)CCOc1cc(-c2cn[nH]c2)ccc1NC(=O)C1COc2ccccc2O1 (stereo not given) (10 µM)
0: all assays above

Cn1cnc2c(F)c(Nc3ccc(Br)cc3F)c(C(=O)NOCCO)cc21 [Binimetinib] (10 µM)
1: DDR1 | DYRK2
3: FGFR2
0: all other assays above

Cc1ncsc1-c1ccc(CNC(=O)[C@@H]2C[C@@H](O)CN2C(=O)[C@@H](NC(=O)COCCOc2ccc(-c3cc(Nc4ccc(OC(F)(F)F)cc4)ncn3)cc2)C(C)(C)C)cc1 (2.5 µM)
0: EGFR | EGFR_T790M | EPHA2 | FGFR3 | FGR
3: DYRK2 | ERBB3
2: DDR1 | EGFR_G719S | EGFR_L861Q | [1] | FGFR2
1: all other assays above

CNCc1cc(Oc2ccc3c(ccn3C(=O)Nc3cc(C(F)(F)F)n(C)n3)c2)ncn1 [Acrizanib] (10 µM)
0: all assays above

Cc1nc(Nc2cnn(C3CCNCC3)c2)nc2c1N(C)C(=O)c1cc3ccccc3cc1N2C (2.5 µM)
0: all assays above

COc1cc(Nc2ccnc3ccc(Br)cc23)cc(OC)c1OC (2.5 µM)
1: DYRK2 | EGFR_L858R | [1]
0: all other assays above

CN1CCC(Nc2nc(Nc3ccc(Oc4ccccc4)cc3)c3c(=O)[nH]cc(Br)c3n2)CC1 (2.5 µM)
5: DDR1
2: CSNK1A1
3: EGFR_G719S | FGFR2 | FGFR3
0: all other assays above

COc1ccc(Br)c(C=O)c1O [6-Bromo-2-hydroxy-3-methoxybenzaldehyde] (10 µM)
0: all assays above

Fc1ccc(Cl)cc1-c1nc(Nc2ccncc2)c2nccnc2n1 (10 µM)
0: all assays above

CCCCNc1ncc(C(=O)NCc2ccc(-n3ccnc3)cc2)c(NC2CCC(O)CC2)n1 (stereo not given) (10 µM)
5: DDR1
3: EGFR
4: EGFR_G719S_T790M
1: EGFR_L861Q
2: [1]
0: all other assays above

CCOc1cc(=O)[nH]cc1-c1ccc(CC(=O)Nc2cc(C(C)(C)C(F)(F)F)on2)c(F)c1 (10 µM)
0: all assays above

COc1ccc2cc1Oc1ccc(cc1)C[C@H]1c3cc(c(OC)cc3CCN1C)Oc1c(O)c(OC)cc3c1[C@H](C2)N(C)CC3 [Fangchinoline] (2.5 µM)
0: all assays above

COc1cc2nc(NC3CC3)nc(NC3CCN(C(C)C)CC3)c2cc1OC (10 µM)
2: DYRK2 | FGFR2
0: all other assays above

For convenience, 2 of the compounds above.
CCOc1cc(=O)[nH]cc1-c1ccc(CC(=O)Nc2cc(C(C)(C)C(F)(F)F)on2)c(F)c1 (10 µM)
0: all assays above

COc1ccc2cc1Oc1ccc(cc1)C[C@H]1c3cc(c(OC)cc3CCN1C)Oc1c(O)c(OC)cc3c1[C@H](C2)N(C)CC3 [Fangchinoline] (2.5 µM)
0: all assays above

Additional compounds follow.

O=c1cc(-c2ccc(O[C@@H]3O[C@H](CO)[C@@H](O)[C@H](O)[C@H]3O)cc2)oc2cc(O)c([C@@H]3O[C@H](CO)[C@@H](O)[C@H](O)[C@H]3O[C@@H]3OC[C@H](O)[C@H](O)[C@H]3O)c(O)c12 [Vaccarin] (10 µM)
0: all assays above

CC/C(=C(\c1ccccc1)c1ccc(OCCNC)cc1)c1ccccc1 [N-Desmethyltamoxifen (hydrochloride)] (2.5 µM)
0: all assays above

O=C(NC[C@H](O)CO)c1ccncc1Nc1ccc(I)cc1F [Pimasertib] (10 µM)
2: DYRK2 | EGFR_G719S | EGFR_L861Q | ERBB3
3: FGFR2
0: CSNK1A1 | DYRK1B | EGFR_L718V | EPHA2 | FGFR1 | FGFR3 | FGR
1: all other assays above

COCCOc1cnc2ccn([C@H](C)c3nnc4c(F)cc(-c5cnn(C)c5)cn34)c(=O)c2c1 (10 µM)
0: all assays above

CN1CCN(Cc2ccc(-c3cn(C4CCC(O)CC4)c4nc(NCCC5CC5)ncc34)cc2)CC1 (stereo not given) (2.5 µM)
3: DDR1
2: EGFR_G719S | EGFR_L861Q | FGFR2
1: EGFR_G719S_T790M | EPHA2
4: DYRK2
0: all other assays above
